One substance from patent publication US20230210943A1 (PEMI31 THERAPEUTICS, published 2023) can be followed below.

Protein sequences, listed by entry. Tags and fused reporters are not part of them. Lines headed by an entry give the natural chain unless they say otherwise; changes in a name come on top.
UniProt P04792: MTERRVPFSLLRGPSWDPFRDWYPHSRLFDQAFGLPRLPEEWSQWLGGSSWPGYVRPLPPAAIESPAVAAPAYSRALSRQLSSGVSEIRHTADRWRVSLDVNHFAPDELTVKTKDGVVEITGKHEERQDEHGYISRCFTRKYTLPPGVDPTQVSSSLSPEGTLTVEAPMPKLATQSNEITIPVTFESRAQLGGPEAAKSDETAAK

These are yes or no findings as the source states them, for the method shown. Some results given as binding are weak or reduced against the parent protein; the word gives no strength.

This experiment has as its target T1, scavenger receptor SR-AI pulled down from macrophage membrane extracts or lysates (UniProt P21757).
T1 sequence (looked up): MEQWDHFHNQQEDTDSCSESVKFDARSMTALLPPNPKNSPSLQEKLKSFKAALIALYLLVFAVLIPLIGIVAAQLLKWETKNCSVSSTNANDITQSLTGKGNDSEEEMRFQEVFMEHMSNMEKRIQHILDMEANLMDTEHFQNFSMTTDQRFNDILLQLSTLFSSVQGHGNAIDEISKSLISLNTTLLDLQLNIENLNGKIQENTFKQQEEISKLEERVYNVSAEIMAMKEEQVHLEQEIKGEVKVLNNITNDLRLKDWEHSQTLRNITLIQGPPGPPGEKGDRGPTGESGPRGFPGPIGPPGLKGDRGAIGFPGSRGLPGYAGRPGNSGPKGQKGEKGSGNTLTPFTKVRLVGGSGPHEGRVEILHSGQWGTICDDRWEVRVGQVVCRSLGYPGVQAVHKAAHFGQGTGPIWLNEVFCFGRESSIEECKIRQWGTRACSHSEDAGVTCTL
In words: plate binding assay on SR-AI pulled down from macrophage membrane extracts.

As to “HIS-tagged full-length HSP27 polypeptide (rHSP27) (from UniProt P04792 2-205)”, the binding entry is on record as “binds”.
